Measurements: the supplement of paper PMC10849652
This is one part of the list. Residues, ends and D or L forms follow the SMILES beside them. *: point of attachment. Cbz = O=C(OCc1ccccc1)*

Sequences of proteins named here, by UniProt entry; tags and fusion partners are left off. A change or cut given only in a name is not applied to a line headed by its entry.
UniProt O75879: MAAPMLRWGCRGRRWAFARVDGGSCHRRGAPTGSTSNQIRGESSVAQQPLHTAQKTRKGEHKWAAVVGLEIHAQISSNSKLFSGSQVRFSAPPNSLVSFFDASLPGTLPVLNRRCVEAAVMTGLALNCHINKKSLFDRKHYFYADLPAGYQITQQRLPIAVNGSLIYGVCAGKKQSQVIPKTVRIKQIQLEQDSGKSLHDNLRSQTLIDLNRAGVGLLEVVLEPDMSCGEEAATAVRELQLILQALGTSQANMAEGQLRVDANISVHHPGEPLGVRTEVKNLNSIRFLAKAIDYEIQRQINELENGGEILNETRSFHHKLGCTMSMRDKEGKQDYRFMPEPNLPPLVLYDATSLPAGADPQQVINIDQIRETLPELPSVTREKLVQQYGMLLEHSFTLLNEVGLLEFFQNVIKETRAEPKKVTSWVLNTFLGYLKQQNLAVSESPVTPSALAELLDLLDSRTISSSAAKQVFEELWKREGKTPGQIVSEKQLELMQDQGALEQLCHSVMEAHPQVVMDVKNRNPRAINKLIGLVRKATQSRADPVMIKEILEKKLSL
UniProt Q9HCG7: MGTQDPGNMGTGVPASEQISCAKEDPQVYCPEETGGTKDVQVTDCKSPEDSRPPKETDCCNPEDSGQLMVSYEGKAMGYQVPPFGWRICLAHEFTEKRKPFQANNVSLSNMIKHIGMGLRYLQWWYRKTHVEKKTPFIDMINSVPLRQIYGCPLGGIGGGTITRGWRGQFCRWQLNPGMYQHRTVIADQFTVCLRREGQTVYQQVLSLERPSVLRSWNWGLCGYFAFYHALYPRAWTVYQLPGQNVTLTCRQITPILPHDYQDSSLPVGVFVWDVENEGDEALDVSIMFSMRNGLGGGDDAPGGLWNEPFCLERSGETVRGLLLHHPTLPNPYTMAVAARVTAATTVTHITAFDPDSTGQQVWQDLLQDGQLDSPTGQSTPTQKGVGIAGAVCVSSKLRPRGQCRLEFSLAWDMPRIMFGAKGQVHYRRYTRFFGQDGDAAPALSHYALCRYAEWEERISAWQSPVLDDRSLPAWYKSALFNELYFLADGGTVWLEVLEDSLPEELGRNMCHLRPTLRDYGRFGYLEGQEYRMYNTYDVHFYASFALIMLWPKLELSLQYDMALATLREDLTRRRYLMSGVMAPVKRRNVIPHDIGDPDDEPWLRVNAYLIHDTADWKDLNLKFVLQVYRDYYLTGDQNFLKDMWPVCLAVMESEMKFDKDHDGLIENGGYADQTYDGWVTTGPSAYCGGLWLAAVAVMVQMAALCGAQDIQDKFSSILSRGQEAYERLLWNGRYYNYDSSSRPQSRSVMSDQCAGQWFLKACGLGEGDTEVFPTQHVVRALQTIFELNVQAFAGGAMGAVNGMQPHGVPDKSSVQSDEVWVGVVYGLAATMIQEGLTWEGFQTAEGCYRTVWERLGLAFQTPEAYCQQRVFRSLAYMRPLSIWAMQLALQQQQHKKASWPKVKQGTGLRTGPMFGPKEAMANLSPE
UniProt Q8IWF2: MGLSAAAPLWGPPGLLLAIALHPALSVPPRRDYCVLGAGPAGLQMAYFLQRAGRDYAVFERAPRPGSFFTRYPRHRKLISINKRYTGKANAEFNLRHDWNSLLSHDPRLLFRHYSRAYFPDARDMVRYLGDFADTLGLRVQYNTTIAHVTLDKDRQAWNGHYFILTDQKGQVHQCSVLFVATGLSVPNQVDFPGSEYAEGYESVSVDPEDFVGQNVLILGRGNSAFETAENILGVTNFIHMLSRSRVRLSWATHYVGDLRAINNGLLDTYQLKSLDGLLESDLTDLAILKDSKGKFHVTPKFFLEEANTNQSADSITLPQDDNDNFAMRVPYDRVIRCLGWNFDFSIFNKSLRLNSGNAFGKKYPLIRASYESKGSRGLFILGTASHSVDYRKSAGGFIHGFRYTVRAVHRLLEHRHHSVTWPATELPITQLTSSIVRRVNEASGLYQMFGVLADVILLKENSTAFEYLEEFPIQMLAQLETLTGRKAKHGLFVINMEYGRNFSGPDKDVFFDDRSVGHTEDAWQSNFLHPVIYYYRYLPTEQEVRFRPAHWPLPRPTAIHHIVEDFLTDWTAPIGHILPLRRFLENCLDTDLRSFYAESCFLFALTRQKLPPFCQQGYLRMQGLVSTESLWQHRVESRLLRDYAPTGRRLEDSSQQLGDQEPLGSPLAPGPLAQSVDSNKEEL
UniProt Q5TBA9: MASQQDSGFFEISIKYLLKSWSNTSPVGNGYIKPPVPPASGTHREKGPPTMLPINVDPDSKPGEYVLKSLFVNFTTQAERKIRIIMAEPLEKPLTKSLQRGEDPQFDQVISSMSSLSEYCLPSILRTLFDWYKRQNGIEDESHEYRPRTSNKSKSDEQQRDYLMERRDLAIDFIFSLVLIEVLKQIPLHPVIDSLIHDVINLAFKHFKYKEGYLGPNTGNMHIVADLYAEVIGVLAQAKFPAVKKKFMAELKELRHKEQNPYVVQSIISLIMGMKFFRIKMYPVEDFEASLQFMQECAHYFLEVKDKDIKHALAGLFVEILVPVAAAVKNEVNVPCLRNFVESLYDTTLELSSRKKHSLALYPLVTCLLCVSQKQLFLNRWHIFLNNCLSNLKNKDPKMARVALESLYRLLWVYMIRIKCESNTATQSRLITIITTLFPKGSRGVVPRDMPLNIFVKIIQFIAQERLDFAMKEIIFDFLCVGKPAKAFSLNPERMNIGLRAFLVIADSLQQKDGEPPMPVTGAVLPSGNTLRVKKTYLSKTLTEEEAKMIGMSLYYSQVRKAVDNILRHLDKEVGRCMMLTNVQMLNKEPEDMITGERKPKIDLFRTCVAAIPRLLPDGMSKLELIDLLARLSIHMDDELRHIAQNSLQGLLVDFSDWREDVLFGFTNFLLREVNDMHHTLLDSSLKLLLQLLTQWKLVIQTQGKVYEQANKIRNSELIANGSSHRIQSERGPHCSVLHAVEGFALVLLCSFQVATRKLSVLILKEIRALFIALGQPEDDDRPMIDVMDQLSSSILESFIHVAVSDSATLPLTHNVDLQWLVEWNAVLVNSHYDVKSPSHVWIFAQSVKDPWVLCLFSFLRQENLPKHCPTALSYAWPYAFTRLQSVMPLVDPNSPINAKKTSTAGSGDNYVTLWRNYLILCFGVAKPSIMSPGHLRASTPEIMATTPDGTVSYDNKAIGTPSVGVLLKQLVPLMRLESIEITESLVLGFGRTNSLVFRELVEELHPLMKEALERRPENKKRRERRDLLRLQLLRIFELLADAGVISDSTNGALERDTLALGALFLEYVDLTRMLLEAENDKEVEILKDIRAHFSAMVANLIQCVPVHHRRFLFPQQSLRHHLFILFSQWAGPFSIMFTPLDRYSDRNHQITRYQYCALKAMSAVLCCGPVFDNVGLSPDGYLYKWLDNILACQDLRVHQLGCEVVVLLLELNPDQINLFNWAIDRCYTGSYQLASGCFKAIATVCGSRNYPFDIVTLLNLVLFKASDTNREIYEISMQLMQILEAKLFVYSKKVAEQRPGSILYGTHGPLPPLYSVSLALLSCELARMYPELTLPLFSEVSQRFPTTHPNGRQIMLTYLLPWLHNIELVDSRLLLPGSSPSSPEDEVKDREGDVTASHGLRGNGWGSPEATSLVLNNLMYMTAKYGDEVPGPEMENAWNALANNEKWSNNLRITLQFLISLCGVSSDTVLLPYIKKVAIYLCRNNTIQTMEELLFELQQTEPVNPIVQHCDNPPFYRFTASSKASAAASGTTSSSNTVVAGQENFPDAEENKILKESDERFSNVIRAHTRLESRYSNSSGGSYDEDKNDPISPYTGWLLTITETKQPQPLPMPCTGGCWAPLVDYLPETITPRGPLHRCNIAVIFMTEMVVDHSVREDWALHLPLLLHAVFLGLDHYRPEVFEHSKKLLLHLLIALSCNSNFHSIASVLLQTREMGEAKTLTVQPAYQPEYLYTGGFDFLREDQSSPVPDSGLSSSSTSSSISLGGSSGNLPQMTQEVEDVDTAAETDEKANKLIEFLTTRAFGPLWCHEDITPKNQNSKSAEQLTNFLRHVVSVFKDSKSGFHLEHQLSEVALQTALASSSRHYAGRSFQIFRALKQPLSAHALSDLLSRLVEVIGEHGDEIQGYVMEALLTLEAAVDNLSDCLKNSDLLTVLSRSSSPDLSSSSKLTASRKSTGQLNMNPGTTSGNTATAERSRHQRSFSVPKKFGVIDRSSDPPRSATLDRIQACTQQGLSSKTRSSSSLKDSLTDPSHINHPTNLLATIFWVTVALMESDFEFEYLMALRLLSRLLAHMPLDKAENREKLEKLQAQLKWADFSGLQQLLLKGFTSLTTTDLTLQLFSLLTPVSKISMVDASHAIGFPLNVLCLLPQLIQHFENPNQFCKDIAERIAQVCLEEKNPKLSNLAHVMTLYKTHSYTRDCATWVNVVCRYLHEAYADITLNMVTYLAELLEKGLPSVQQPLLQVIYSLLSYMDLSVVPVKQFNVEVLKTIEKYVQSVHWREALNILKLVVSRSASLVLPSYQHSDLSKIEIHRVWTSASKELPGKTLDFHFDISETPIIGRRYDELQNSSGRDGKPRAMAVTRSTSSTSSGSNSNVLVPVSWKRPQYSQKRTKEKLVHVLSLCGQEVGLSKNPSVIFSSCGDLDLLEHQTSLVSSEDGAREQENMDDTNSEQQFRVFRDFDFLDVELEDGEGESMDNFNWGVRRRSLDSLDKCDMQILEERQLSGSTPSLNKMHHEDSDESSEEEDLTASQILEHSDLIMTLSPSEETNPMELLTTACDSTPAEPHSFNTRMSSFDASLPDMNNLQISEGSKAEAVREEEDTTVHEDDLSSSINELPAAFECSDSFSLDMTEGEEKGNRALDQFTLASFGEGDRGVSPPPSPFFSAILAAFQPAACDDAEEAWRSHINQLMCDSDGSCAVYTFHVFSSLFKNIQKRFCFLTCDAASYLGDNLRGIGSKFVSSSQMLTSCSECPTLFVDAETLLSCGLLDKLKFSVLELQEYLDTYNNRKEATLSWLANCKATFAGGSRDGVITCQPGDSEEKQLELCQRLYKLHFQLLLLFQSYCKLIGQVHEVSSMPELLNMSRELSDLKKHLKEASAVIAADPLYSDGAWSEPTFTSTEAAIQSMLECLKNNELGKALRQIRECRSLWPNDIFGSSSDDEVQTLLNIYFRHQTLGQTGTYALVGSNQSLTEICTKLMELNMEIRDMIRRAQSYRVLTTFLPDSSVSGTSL
UniProt Q9NWZ8: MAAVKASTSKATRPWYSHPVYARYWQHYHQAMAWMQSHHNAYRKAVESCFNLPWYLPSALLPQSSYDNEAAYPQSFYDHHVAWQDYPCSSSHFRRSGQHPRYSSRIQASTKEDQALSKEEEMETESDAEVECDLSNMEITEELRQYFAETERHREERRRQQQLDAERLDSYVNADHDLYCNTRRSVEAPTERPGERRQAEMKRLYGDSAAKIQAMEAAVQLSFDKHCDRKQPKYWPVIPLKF
UniProt Q05932: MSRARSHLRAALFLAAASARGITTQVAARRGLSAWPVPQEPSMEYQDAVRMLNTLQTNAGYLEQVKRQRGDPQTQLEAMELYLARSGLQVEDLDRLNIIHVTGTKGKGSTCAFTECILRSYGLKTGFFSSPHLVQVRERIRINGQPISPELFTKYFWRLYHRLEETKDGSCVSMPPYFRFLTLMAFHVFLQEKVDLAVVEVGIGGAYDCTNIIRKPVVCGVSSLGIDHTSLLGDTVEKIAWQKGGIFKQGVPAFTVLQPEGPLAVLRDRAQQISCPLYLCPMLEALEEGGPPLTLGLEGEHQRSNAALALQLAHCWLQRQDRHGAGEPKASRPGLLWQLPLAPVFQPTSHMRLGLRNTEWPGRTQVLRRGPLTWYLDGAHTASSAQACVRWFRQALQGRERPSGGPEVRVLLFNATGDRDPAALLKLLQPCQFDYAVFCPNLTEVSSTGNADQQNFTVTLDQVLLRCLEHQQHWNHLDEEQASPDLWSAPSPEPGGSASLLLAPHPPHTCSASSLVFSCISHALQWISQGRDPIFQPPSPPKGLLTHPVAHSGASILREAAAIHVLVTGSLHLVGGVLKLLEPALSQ
UniProt Q96NB1: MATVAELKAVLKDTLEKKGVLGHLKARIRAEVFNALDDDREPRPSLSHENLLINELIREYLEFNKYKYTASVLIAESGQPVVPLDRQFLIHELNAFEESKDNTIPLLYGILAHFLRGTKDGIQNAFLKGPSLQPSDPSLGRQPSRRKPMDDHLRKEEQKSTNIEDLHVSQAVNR
UniProt O43716: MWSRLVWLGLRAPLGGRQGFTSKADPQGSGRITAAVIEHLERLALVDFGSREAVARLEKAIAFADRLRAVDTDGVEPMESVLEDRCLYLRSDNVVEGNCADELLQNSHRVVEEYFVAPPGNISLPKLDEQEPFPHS

Assays:
Assay in all cases: log2 fold change, soluble protein after heating vs DMSO (PISA); higher = thermal stabilisation; K562 cells, 10 uM, 30 min; active = over 0.2 and 3.5 SD of the protein, either way, in both replicates (recomputed)
erlotinib = compound: C#Cc1cccc(Nc2ncnc3cc(OCCOC)c(OCCOC)cc23)c1 [erlotinib]
Method in brief: (§1)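 For each measurement, 10 μM compound was applied for 30 min to K562 cells at 2×10^6 cells/mL. Aliquots were heated for 3 min across 48°C-58°C, pooled, and extracted in PBS with 0.5% NP-40 at 4°C; the supernatant after 21,000xg for 90 min was soluble protein. This was quantified by TMTpro 16plex LC-MS/MS with channel sums equalised, and thermal stability was reported relative to control samples from duplicates, on a log2 fold-change scale.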

[1] = compound: C/C(=N\NC(=O)C1=CC(=CC=C1)S(=O)(=O)N2CCOCC2)/C3=C(C=CC(=C3)Cl)O
Method in brief: as §1

[2] = compound: C1=CC(=C(C=C1Cl)C2=NC3=NC=CN=C3C(=N2)NC4=CC=NC=C4)F
Method in brief: as §1

[3] = compound: C1=CC(=CC=C1C2=NC3=C(N2)C=C(C=C3)C(=O)N)OC4=CC=C(C=C4)Cl
Method in brief: as §1

[4] = compound: C1=CC2=C(C=CC(=C2)/C=C\3/C(=O)NC(=NCC4=CC=CS4)S3)N=C1
Method in brief: as §1

[5] = compound: C1=CC=C(C=C1)C2=NC(=C(N2)C3=CC=NC=C3)C4=CC(=C(C=C4)Cl)O
Method in brief: as §1

[6] = compound: C1=CC=C2C(=C1)C3=NNC4=CC=CC(=C43)C2=O
Method in brief: as §1

[7] = compound: C1CCN(C1)C(=O)NC2=CC=CC(=C2)NC3=NC=C(C(=N3)NCCC4=CN=CN4)Br
Method in brief: as §1

[8] = compound: C1CN(CCC1(CC2=CC=C(C=C2)Cl)N)C3=NC=NC4=C3C=CN4
Method in brief: as §1

IRAK-1-4 Inhibitor I = compound: C1COCCN1CCN2C3=CC=CC=C3N=C2NC(=O)C4=CC(=CC=C4)[N+](=O)[O-] [IRAK-1-4 Inhibitor I]
Method in brief: as §1

[9] = compound: CC(=O)c1cnc2ccc(-c3cc(Cl)c(O)c(Cl)c3)nc2c1N[C@H]1CC[C@H](CN(C)C)CC1
Method in brief: as §1

ralimetinib = compound: CC(C)(C)Cn1c(N)nc2ccc(-c3[nH]c(C(C)(C)C)nc3-c3ccc(F)cc3)nc21 [ralimetinib]
Method in brief: as §1

[10] = compound: CC(C)(O)CC(=O)NCCn1ccc2ncnc(Nc3ccc(Oc4cccc(C(F)(F)F)c4)c(Cl)c3)c21
Method in brief: as §1

[11] = compound: CC(C)C1=C2N=C(C=C(N2N=C1)NCC3=CC=CC=C3)NCCCCCCN
Method in brief: as §1

[12] = compound: CC(C)C[C@@H](C=O)NC(=O)[C@H](CC(C)C)NC(=O)[C@H](CC(C)C)NC(=O)OCc1ccccc1
Method in brief: as §1

pinometostat = compound: CC(C)N(C[C@H]1O[C@@H](n2cnc3c(N)ncnc32)[C@H](O)[C@@H]1O)[C@H]1C[C@@H](CCc2nc3cc(C(C)(C)C)ccc3[nH]2)C1 [pinometostat]
Method in brief: as §1

[13] = compound: CC1=C(C(CC(=O)N1)C2=CC=C(C=C2)C(F)(F)F)C(=O)NC3=C(C=C4C(=C3)C=NN4)F
Method in brief: as §1

[14] = compound: CC1=C(C2=C(C=C1)C(=O)C3=CC=CC=C3N2CCCN)C
Method in brief: as §1

[15] = compound: C1=CC2=NC=CN=C2C=C1/C=C/3\C(=O)NC(=O)S3
Method in brief: as §1

ibrutinib = compound: C=CC(=O)N1CCC[C@@H](n2nc(-c3ccc(Oc4ccccc4)cc3)c3c(N)ncnc32)C1 [ibrutinib]
Method in brief: as §1

Measured: log2 fold change

GATB (UniProt O75879)
inactive: erlotinib 0.185 | [1] 0.011 | [2] 0.092 | [3] -0.147 | [4] 0.187 | [5] 0.331 | [6] 0.044 | [7] -0.313 | [8] -0.031 | IRAK-1-4 Inhibitor I -0.282 | [9] -0.338 | ralimetinib -0.018 | [10] -0.202 | [11] -0.04 | [12] -0.323 | pinometostat -0.237 | [13] -0.238 | [14] 0.16

GATAD2B (UniProt Q8WXI9)
inactive: erlotinib 0.007 | [2] 0.013 | [3] 0.035 | [5] -0.03 | [7] 0.049 | [8] 0.011 | IRAK-1-4 Inhibitor I -0.029 | ralimetinib 0.064 | [10] -0.016 | [11] -0.022 | [12] -0.08 | pinometostat -0.062 | [14] 0.085

GBA2 (UniProt Q9HCG7)
inactive: erlotinib 0.063 | [1] 0.095 | [2] 0.04 | [3] 0.01 | [4] 0.033 | [15] -0.023 | [6] 0.028 | [7] 0.034 | [8] 0.104 | IRAK-1-4 Inhibitor I -0.082 | ibrutinib -0.027 | [9] -0.073 | [10] 0.048 | [11] 0.326 | pinometostat 0.121 | [14] -0.003

GAA (UniProt P10253)
inactive: erlotinib 0.178 | [1] 0.029 | [2] -0.05 | [3] -0.4 | [4] 0.091 | [6] -0.138 | [7] 0.009 | [8] -0.076 | IRAK-1-4 Inhibitor I 0.043 | [9] -0.211 | [10] 0.076 | [11] 0.232 | pinometostat 0.093 | [14] 0.274

FOXRED2 (UniProt Q8IWF2)
inactive: erlotinib -0.015 | [1] -0.012 | [2] -0.046 | [3] -0.01 | [4] -0.11 | [5] -0.022 | [6] 0.18 | [7] -0.065 | [8] 0.092 | IRAK-1-4 Inhibitor I -0.399 | [9] -0.12 | ralimetinib 0.024 | [10] 0.071 | [11] -0.039 | [12] 0.188 | pinometostat 0.071 | [14] 0.061

FRY (UniProt Q5TBA9)
inactive: erlotinib 0.04 | [1] 0.092 | [2] -0.065 | [3] 0.027 | [4] 0.058 | [15] 0.129 | [6] -0.06 | [7] -0.063 | [8] -0.12 | ibrutinib -0.122 | [9] -0.049 | [10] 0.004 | [11] -0.149 | [14] -0.007

GEMIN8 (UniProt Q9NWZ8)
inactive: erlotinib -0.047 | [1] -0.021 | [2] 0.07 | [3] 0.098 | [4] 0.128 | [6] 0.067 | [7] -0.085 | [8] -0.089 | [9] 0.029 | [10] -0.133 | [11] 0.006 | [13] 0.021 | [14] 0.061

GDAP2 (UniProt Q9NXN4)
inactive: erlotinib 0.044 | [1] -0.05 | [2] -0.204 | [3] 0.01 | [4] 0.043 | [6] -0.029 | IRAK-1-4 Inhibitor I 0.062 | [9] -0.175 | [10] -0.08 | [11] -0.549 | pinometostat 0.086 | [13] -0.133

GARS1 (UniProt H7C443)
inactive: erlotinib 0.266 | [1] -0.217 | [2] -0.144 | [3] -0.005 | [4] 0.188 | [5] -0.352 | [6] -0.039 | [7] 0.162 | [8] -0.026 | IRAK-1-4 Inhibitor I 0.016 | [9] -0.098 | ralimetinib -0.162 | [10] 0.103 | [11] 0.001 | [12] 0.148 | pinometostat 0.033 | [13] 0.025 | [14] 0.036

FPGS (UniProt Q05932)
inactive: erlotinib -0.004 | [2] -0.03 | [3] -0.089 | [15] 0.02 | [5] -0.11 | IRAK-1-4 Inhibitor I 0.087 | ibrutinib 0.009 | ralimetinib -0.119 | [10] -0.11 | [11] 0.005 | [12] 0.082 | pinometostat -0.052

FOPNL (UniProt Q96NB1)
inactive: erlotinib -0.022 | [1] 0.001 | [2] 0.201 | [3] 0 | [4] 0.028 | [15] 0.032 | [6] -0.038 | [7] -0.071 | [8] -0.009 | IRAK-1-4 Inhibitor I 0.026 | ibrutinib -0.002 | [9] -0.005 | [10] 0.157 | [11] 0.041 | pinometostat 0.033 | [13] -0.399 | [14] -0.041

2 records picked at random from those above:
GDAP2 (UniProt Q9NXN4)
inactive: erlotinib 0.044 | [1] -0.05 | [2] -0.204 | [3] 0.01 | [4] 0.043 | [6] -0.029 | IRAK-1-4 Inhibitor I 0.062 | [9] -0.175 | [10] -0.08 | [11] -0.549 | pinometostat 0.086 | [13] -0.133

GARS1 (UniProt H7C443)
inactive: erlotinib 0.266 | [1] -0.217 | [2] -0.144 | [3] -0.005 | [4] 0.188 | [5] -0.352 | [6] -0.039 | [7] 0.162 | [8] -0.026 | IRAK-1-4 Inhibitor I 0.016 | [9] -0.098 | ralimetinib -0.162 | [10] 0.103 | [11] 0.001 | [12] 0.148 | pinometostat 0.033 | [13] 0.025 | [14] 0.036

Remaining list, next part:

FZD1 (UniProt Q9UP38)
inactive: erlotinib -0.035 | [2] 0.005 | [3] 0.117 | [15] -0.049 | ibrutinib -0.154 | [10] -0.128 | [11] -0.573 | [13] 0.288

G6PD (UniProt E7EUI8)
inactive: IRAK-1-4 Inhibitor I -0.215 | pinometostat -0.176

GATC (UniProt O43716)
inactive: [1] 0.134 | [2] -0.02 | [4] -0.035 | [15] -0.052 | [5] 0.003 | [6] -0.039 | [7] -0.039 | [8] 0.006 | IRAK-1-4 Inhibitor I -0.043 | ibrutinib 0.047 | [9] -0.201 | ralimetinib -0.21 | [10] 0.031 | [12] 0.15 | pinometostat -0.131 | [13] -0.1 | [14] 0.221
